The source of these data is publication PMC9322950 (Pharmaceutics, 2022).

The series concerns absolute neutrophil count (ANC). As to the kind of experiment: Semi-mechanistic PK/PD neutropenia model (exposure–toxicity relationship, ANC time course). The class given is in vivo, human. Particulars: final PK/PD model. As for the experimental part:
ANC was directly retrieved from the patients' medical records up to the date of the last PK observation. The most recent ANC value in the three months before palbociclib initiation was retained as the base value. Blood sampling for ANC measurement was performed either concomitantly or separately from that for palbociclib quantification. The proliferation, maturation, and homeostatic regulation of neutrophils were mimicked by a series of 5 compartments, as described in the model developed by Friberg et al.. This structural model was directly applied to our data. The first compartment represented stem cells and proliferating precursor cells in the bone marrow with the systematic renewal of proliferative cells' production modeled by the rate constant kprol. This compartment was followed by three transit compartments to account for the delay between proliferation and maturation according to the first-order rate constant ktr, defined as n+1/MTT , where MTT is the mean transit time of neutrophils. The last compartment characterized the blood circulation with the neutrophil elimination rate constant kcirc. The rate constants kprol, ktr, and […] assumed to be equal, as in the original model. […] ANCs were log-transformed before the analysis, and an additive error on the log scale was used to describe residual variability. Owing to long computation runtime, neutropenia model development was first performed by fixing the PK parameters that were estimated together with PD parameters in the final model. Potential associations between post hoc individual parameter estimates and demographic or clinical characteristics were first visually explored and then tested in the model. […] The characteristics available for testing their effect on PD parameters were as follows: age, body weight, ALK, BILT, gamma-glutamyltransferase (GGT), albumin, AST, ALT, eGFR, association with fulvestrant, chemotherapy in the previous treatment line, and POCT measurement. […] Despite high inter-individual variability on EC50, covariates were not tested on this parameter and were substituted by covariates on Emax as recommended in good practices for exposure-response analyses. Baseline values of continuous covariates were tested on the base ANC parameter while time-varying values were tested on Emax. Continuous covariates were centered and normalized on their median value and tested by linear or allometric functions as appropriate. Missing data were imputed to the population median value. Categorical covariates were coded as 0 or 1, and missing data were first treated as an additional category and then regrouped according to their parameter estimates. […] The final PK/PD model was evaluated with a non-parametric bootstrap using 502 replicates of the initial dataset. […]

The mark [1] stands for this setting: bootstrap median (n = 502 samples).

As for `CC(=O)c1c(C)c2cnc(Nc3ccc(N4CCNCC4)cn3)nc2n(C2CCCC2)c1=O` [palbociclib, Palbociclib], the “MTT (mean transit time)” value by setting is: under setting [1], 121 h; (estimate) 122 h. The “γ (feedback parameter)” value under setting [1] is given as 0.13 and the “γ (feedback parameter)” value (estimate) is 0.13.
